Source: PubChem BioAssay AID504749 (NCATS, 2011).

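A panel of P. falciparum strains inside erythrocytes is exposed to compounds for three days, then a DNA-binding dye reports the amount of parasite DNA. Each compound was titrated across a series from about 0.000037 to 29 µM. The number is the fitted AC50, the concentration giving a half-maximal change in signal; a lower value means higher potency, whether the curve shows a decrease or an increase. Calls follow the curve class and fit quality: every row here is inconclusive, covering signal-raising curves and weak, poorly fitted, partial or highest-dose-only inhibition curves.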

Values are in nM. All entries here are filed as inconclusive. These entries are mostly ones the record files as inconclusive; other results of the assay are not listed here. A potency from a partial, single-point or poor curve is only a rough figure.

OCc1cc(C(O)CNCCCCCCOCCCCc2ccccc2)ccc1O (centres undefined) [PC26] read Potency 9528 nM (inhibitor, partial curve, poor fit).
OCc1cc(C(O)CNCCCCCCOCCCCc2ccccc2)ccc1O (centres undefined) [P93_24] read Potency 17782 nM (inhibitor, single point).
OCc1cc(C(O)CNCCCCCCOCCCCc2ccccc2)ccc1O (centres undefined) [CP335] read Potency 3793 nM (inhibitor, single point).
OCc1cc(C(O)CNCCCCCCOCCCCc2ccccc2)ccc1O (centres undefined) [CP215] read Potency 21331 nM (inhibitor, partial curve, poor fit).
OCc1cc(C(O)CNCCCCCCOCCCCc2ccccc2)ccc1O (centres undefined) [CP286] read Potency 14125 nM (inhibitor, single point).
OCc1cc(C(O)CNCCCCCCOCCCCc2ccccc2)ccc1O (centres undefined) [7G8] read Potency 11220 nM (inhibitor, single point).
OCc1cc(C(O)CNCCCCCCOCCCCc2ccccc2)ccc1O (centres undefined) [CP191] read Potency 17782 nM (inhibitor, single point).
OCc1cc(C(O)CNCCCCCCOCCCCc2ccccc2)ccc1O (centres undefined) [TAB109] read Potency 14125 nM (inhibitor, single point).
OCc1cc(C(O)CNCCCCCCOCCCCc2ccccc2)ccc1O (centres undefined) [PC15] read Potency 17782 nM (inhibitor, single point).
OCc1cc(C(O)CNCCCCCCOCCCCc2ccccc2)ccc1O (centres undefined) [TAB165] read Potency 17782 nM (inhibitor, single point).
OCc1cc(C(O)CNCCCCCCOCCCCc2ccccc2)ccc1O (centres undefined) [CP203] read Potency 9528 nM (inhibitor, partial curve, poor fit).
OCc1cc(C(O)CNCCCCCCOCCCCc2ccccc2)ccc1O (centres undefined) [CP237] read Potency 17782 nM (inhibitor, single point).
OCc1cc(C(O)CNCCCCCCOCCCCc2ccccc2)ccc1O (centres undefined) [DIV14] read Potency 16944 nM (inhibitor, single point).
OCc1cc(C(O)CNCCCCCCOCCCCc2ccccc2)ccc1O (centres undefined) [ICS] read Potency 11220 nM (inhibitor, single point).
OCc1cc(C(O)CNCCCCCCOCCCCc2ccccc2)ccc1O (centres undefined) [CP260] read Potency 11220 nM (inhibitor, single point).
Oc1cccc(O)c1O [CP237] read Potency 17782 nM (inhibitor, single point).
Oc1cccc(O)c1O [DIV14] read Potency 19011 nM (inhibitor, single point).
Oc1cccc(O)c1O [CP286] read Potency 17782 nM (inhibitor, single point).
Oc1cccc(O)c1O [AS120] read Potency 17782 nM (inhibitor, single point).
Oc1cccc(O)c1O [3D7] read Potency 11220 nM (inhibitor, single point).
Oc1cccc(O)c1O [CP203] read Potency 19011 nM (inhibitor, single point).
Oc1cccc(O)c1O [HB3] read Potency 17782 nM (inhibitor, single point).
Oc1cccc(O)c1O [CP201] read Potency 16944 nM (inhibitor, single point).
Oc1cccc(O)c1O [CP325] read Potency 19011 nM (inhibitor, partial curve, poor fit).
Oc1cccc(O)c1O [CP305] read Potency 19011 nM (inhibitor, single point).